Test results: PMC6794296
Results are given in words; binding and its absence hold for the method and conditions named. Binding seen in cells or lysates may run through a third protein. Some binding calls cover weakened binding; strength is not graded here. Sequences can lack the tags named with a protein.

The chains behind the UniProt entries cited, without tags or fusion partners.
UniProt O60331: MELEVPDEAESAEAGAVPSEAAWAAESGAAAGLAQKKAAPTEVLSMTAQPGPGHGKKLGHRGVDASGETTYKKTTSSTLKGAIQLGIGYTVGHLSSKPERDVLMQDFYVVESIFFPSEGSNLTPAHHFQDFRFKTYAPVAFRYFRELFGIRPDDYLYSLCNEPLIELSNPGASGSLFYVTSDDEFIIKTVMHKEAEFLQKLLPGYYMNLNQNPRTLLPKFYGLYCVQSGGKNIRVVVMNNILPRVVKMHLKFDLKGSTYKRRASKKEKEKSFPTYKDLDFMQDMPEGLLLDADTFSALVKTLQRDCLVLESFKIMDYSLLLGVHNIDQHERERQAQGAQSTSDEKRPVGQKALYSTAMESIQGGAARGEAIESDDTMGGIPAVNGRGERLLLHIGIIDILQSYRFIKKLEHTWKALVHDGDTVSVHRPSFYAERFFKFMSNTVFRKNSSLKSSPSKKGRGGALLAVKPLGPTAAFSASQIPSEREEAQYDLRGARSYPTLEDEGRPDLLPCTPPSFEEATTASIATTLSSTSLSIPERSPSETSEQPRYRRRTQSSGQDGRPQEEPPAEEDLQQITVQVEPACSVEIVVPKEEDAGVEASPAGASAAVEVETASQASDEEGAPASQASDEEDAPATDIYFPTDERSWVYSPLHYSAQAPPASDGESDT
UniProt Q99755: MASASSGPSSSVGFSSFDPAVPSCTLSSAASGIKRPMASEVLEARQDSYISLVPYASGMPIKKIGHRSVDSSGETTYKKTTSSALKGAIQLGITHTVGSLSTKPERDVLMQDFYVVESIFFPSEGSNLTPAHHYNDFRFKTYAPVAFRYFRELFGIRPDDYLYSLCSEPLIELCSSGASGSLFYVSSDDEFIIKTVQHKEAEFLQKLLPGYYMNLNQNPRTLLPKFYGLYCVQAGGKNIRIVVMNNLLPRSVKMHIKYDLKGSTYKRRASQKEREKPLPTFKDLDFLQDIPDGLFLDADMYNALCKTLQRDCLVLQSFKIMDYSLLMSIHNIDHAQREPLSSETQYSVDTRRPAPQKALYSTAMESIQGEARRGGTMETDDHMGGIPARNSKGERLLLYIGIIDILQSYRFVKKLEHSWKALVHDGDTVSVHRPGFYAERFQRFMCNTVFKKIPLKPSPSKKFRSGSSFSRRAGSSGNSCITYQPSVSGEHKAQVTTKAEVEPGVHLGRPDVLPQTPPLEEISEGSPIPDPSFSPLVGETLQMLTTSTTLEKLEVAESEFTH
UniProt O14986: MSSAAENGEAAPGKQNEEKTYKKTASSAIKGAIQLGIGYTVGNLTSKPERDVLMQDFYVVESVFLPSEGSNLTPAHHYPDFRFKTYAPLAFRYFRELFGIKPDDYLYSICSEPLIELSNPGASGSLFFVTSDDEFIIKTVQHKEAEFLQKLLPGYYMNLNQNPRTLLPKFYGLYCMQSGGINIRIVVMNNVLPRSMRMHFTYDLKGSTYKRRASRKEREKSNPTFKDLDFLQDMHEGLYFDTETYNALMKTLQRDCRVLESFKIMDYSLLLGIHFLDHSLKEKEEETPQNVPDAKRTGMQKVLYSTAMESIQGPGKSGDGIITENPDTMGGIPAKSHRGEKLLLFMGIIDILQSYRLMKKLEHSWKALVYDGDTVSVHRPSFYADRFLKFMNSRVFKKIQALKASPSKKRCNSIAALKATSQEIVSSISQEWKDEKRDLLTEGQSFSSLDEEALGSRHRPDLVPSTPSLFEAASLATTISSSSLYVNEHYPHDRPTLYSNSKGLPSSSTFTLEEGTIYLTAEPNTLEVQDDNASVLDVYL

Target: T1, mCherry-tagged phosphatidylinositol 4-phosphate 5-kinase homolog (PIPKH) (human) (UniProt Q5T9C9)
T1 sequence: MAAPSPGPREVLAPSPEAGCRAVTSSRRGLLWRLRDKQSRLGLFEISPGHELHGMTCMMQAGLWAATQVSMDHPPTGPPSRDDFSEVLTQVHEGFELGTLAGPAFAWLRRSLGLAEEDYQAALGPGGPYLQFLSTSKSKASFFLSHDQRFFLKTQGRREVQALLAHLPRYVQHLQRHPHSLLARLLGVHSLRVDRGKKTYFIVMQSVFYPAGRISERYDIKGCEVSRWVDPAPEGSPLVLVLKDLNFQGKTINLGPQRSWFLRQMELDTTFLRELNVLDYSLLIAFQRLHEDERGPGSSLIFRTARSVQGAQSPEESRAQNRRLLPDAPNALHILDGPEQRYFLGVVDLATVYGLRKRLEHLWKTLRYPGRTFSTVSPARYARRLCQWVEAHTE
Experiment: FRET or BRET; FLIM-FRET in CHO cells transiently co-transfected; donor GFP or YFP on PIP5K or Rab protein, acceptor mCherry on PIPKH; lifetime of the donor with and without the acceptor

Row | binding | Substance
1 | binds | GFP-PIP5Kγ90 (from UniProt O60331 1-668) (enzyme)
2 | binds | YFP-PIP5Kα (from UniProt Q99755 1-562) (enzyme)
3 | binds | YFP-PIP5Kβ (from UniProt O14986 1-540) (enzyme)
